Laboratory results published in US20230181768A1, “TISSUE-TARGETING COMPLEX” (PHARMPUR GMBH, priority 2017, published 2023).

Tested on: ILM model substrate (silk granules)
Conditions: for λmax Reference (588 nm) / λmax Reference (632-635 nm) / λmax Reference (779 nm): without model substrate; for λmax Reference (632-635 nm): 632 nm (7a), 634 nm (7b, 7d), 635 nm (7c); for λmax Reference (585 nm): dye solution without model substrate

SMILES	λmax Reference (588 nm) (0.005 mg/mL in PBS pH 7.4)	λmax Reference (632-635 nm) (0.005 mg/mL in PBS pH 7.4)	λmax Reference (588 nm) (0.01 mg/mL in PBS pH 7.4)	λmax Reference (632-635 nm) (0.01 mg/mL in PBS pH 7.4)	λmax Reference (588 nm) (0.02 mg/mL in PBS pH 7.4)	λmax Reference (632-635 nm) (0.02 mg/mL in PBS pH 7.4)	λmax Reference (588 nm) (0.04 mg/mL in PBS pH 7.4)	λmax Reference (632-635 nm) (0.04 mg/mL in PBS pH 7.4)	λmax Reference (588 nm) (0.08 mg/mL in PBS pH 7.4)	λmax Reference (632-635 nm) (0.08 mg/mL in PBS pH 7.4)	λmax Reference (588 nm) (0.16 mg/mL in PBS pH 7.4)	λmax Reference (632-635 nm) (0.16 mg/mL in PBS pH 7.4)	further results
CCCC[N+](C)(C)CCCNc1ccc(NCCC[N+](C)(C)CCCC)c2c1C(=O)c1ccccc1C2=O [7a, N,N′=(((9,10-dioxo-9,10-dihydroanthracene-1,4-diyl)bis(azanediyl))bis(propane-3,1-diy1))bis(N,N-dimethylbutan-1-aminium) bromide]	0.0932	0.1159	0.2000	0.2448	0.3868	0.4640	0.7611	0.8862	1.500	1.6571	2.8594	2.9961	–
CCCCCCCC[N+](C)(C)CCCNc1ccc(NCCC[N+](C)(C)CCCCCCCC)c2c1C(=O)c1ccccc1C2=O [7b, N,N′-(((9,10-dioxo-9,10-dihydroanthracene-1,4-diyl)bis(azanediyl))bis(propane-3,1-diyl))bis(N,N-dimethyloctan-1-aminium) bromide]	0.0733	0.0930	0.1508	0.1890	0.3142	0.3881	0.6307	0.7606	1.2728	1.4791	2.4402	2.6985	–
CCCCCCCCCCCC[N+](C)(C)CCCNc1ccc(NCCC[N+](C)(C)CCCCCCCCCCCC)c2c1C(=O)c1ccccc1C2=O [7d, N,N′(((9,10-dioxo-9,10-dihydroanthracene-1,4-diyl)bis(azanediyl))bis(propane-3,1-diyl))bis(N,N-dimethyldodecan-1-aminium) Bromide]	0.0369	0.0304	0.1045	0.0845	0.2440	0.1949	0.3649	0.2895	0.8039	0.6368	1.8155	1.4306	–
CCOc1ccc(Nc2ccc(/C(=C3C=C/C(=[N+](/CC)Cc4cccc(S(=O)(=O)[O-])c4)C=C/3C)c3ccc(N(CC)Cc4cccc(S(=O)(=O)[O-])c4)cc3C)cc2)cc1.[Na+] [BBG, Brilliant Blue G, reference compound]	–	–	–	–	–	–	–	–	–	–	–	–	λmax Reference (585 nm) (0.005 mg/mL in PBS pH 7.4): 0.1241; λmax Reference (585 nm) (0.01 mg/mL in PBS pH 7.4): 0.3755; λmax Reference (585 nm) (0.02 mg/mL in PBS pH 7.4): 0.835; λmax Reference (585 nm) (0.04 mg/mL in PBS pH 7.4): 1.6741; λmax Reference (585 nm) (0.08 mg/mL in PBS pH 7.4): 3.2859
CCCCCCCCCC[N+](C)(C)CCCNc1ccc(NCCC[N+](C)(C)CCCCCCCCCC)c2c1C(=O)c1ccccc1C2=O [7c, N,N′=(((9,10-dioxo-9,10-dihydroanthracene-1,4-diyl)bis(azanediyl))bis(propane-3,1-diyl))bis(N,N-dimethyldecan-1-aminium) Bromide]	0.0503	0.0633	0.124	0.1476	0.2708	0.2786	0.5298	0.5068	1.0636	0.9575	2.2754	1.9492	–
CC1(C)C(/C=C/C=C/C=C/C=C2\N(CCCCS(=O)(=O)O)c3ccc4ccccc4c3C2(C)C)=[N+](CCCCS(=O)(=O)[O-])c2ccc3ccccc3c21 [ICG, Indocyanine green, reference compound]	–	–	–	–	–	–	–	–	–	–	–	–	λmax Reference (779 nm) (0.005 mg/mL in double-distilled water): 0.0226; λmax Reference (779 nm) (0.01 mg/mL in double-distilled water): 0.0162; λmax Reference (779 nm) (0.02 mg/mL in double-distilled water): 0.0477; λmax Reference (779 nm) (0.04 mg/mL in double-distilled water): 3.5822; absorption (up to a concentration of 0.02 mg/mL, double-distilled water): virtually no absorption

Read-outs that look alike come from different tables or passages of the source.
